Our source for the AC50 values is PubChem BioAssay AID493014 (National Center for Advancing Translational Sciences (NCATS), 2011).

Where “and” joins values, the source holds several entries; their conditions need not be identical. Equal values may be shown once. Some of the results follow. The main result of the screen is listed elsewhere. These columns were measured beside it and carry no call. Most of these compounds were active or inconclusive in the main read-out, so they are no random draw. Words in brackets tell the shape of the fitted curve; partial curves, single points and poor fits give uncertain potencies.

The nature of the assay: qHTS Assay to Find Inhibitors of Chronic Active B-Cell Receptor Signaling. The conditions noted are these: ABC-DLBCL IkBa-CBG/CBR reporter, luminescence ratio (green luciferase fused to IkBa over red control in TMD8 lymphoma cells), 4 h. In short, it runs like this:
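TMD8 human ABC-DLBCL cells with doxycycline-inducible IκBα–green luciferase fusion and unfused red luciferase, in 0.5% FBS medium; compounds up to 46 uM, 4 h at 37C. Green/red luminescence ratio, filter-overlap corrected, fitted to concentration-response curves.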
A general note: Quantitative high-throughput screening tests each substance at several concentrations.

The mark [1] stands for this setting: measured here: CBR red luminescence, cell number.
[2] abbreviates: measured here: IkBa-CBG green luminescence.

On to `CCOC(=O)c1ccc(NC(=O)c2ccc(OC(C)C)c(OC)c2)cc1`, for which, under setting [1], the AC50 was 14.1 µM [falling, single point].
Turning to `CC(=O)NC(Cc1c[nH]c2ccccc12)C(=O)N/N=C/c1ccccc1` (stereo unspecified), the AC50 under setting [1] is 3.55 µM [rising, partial curve, poor fit].
`COCCNC(=S)N(CCc1c(C)[nH]c2ccc(F)cc12)Cc1ccco1`: the AC50 under setting [1] was 20 µM [falling, single point].
`COc1ccc(CN2CCN(c3ncccn3)CC2)c(OC)c1`: under setting [1], the AC50 is 14.6 µM [rising, single point].
The same measure, in the same setting: with `CCOc1ccc(N(CC(=O)NCc2ccc3c(c2)OCO3)C(=O)c2csnn2)cc1` the figure was 35.5 µM [falling, single point].
As for `CCCCCOC(=O)C1=C(C)Nc2ncnn2C1c1cccs1` (stereo unspecified), under setting [1], the AC50 is 4.11 µM [falling, partial curve, poor fit].
For `CCOc1ccccc1NC(=O)C1CCC(CNc2c(N3CCCCC3)c(=O)c2=O)CC1` (stereo unspecified), the AC50 by setting is: under setting [1], 0.631 µM [falling, full curve, poor fit]; under setting [2], 0.794 µM [rising, full curve, poor fit].
In the case of `O=S(=O)(Nc1cccnc1)c1cccs1`, the AC50 under setting [1] is 29.1 µM [falling, single point].
With `COC(=O)N=Nc1c(O)[nH]c2ccc(Br)cc12`, the AC50 under setting [1] is 17.8 µM [falling, partial curve, poor fit].
As for `O=C(O)CCC(=O)N1N=C(c2ccc(Br)cc2)CC1c1cccc(Br)c1` (stereo unspecified), the AC50 under setting [1] is 8.91 µM [falling, single point].
Still for that read-out and setting: with `CC(C(=O)NC1C=CS(=O)(=O)C1)N1C(=O)/C(=C/c2ccc(Cl)cc2)SC1=S` (stereo unspecified) the figure was 11.2 µM [falling, partial curve]; with `COc1ccccc1NC(=S)N(CCc1nc2cc(C)c(C)cc2[nH]1)Cc1cccnc1`, 0.447 µM [falling, partial curve, poor fit]; with `COc1cc2c(=O)n(Cc3ccccc3)c(=O)n(CC(=O)NCC3CCCO3)c2cc1OC` (stereo unspecified), 18.4 µM [falling, partial curve].
Take `CC(C)N(Cc1cn[nH]c1-c1ccc(-c2ccccc2)cc1)Cc1nccn1C`: the AC50 under setting [1] is 35.5 µM [falling, single point].
The same measure, in the same setting: then `Cc1ccccc1NC(=O)NCCCN1CCN(c2ccccc2)CC1`, with 23.1 µM [rising, partial curve, poor fit].
Still for that read-out and setting: then `Cc1c(NC(=S)N/N=C/c2ccc(Br)cc2)c(=O)n(-c2ccccc2)n1C`, with 0.708 µM [falling, partial curve].
As for `COc1cc(CN2CCc3ccccc3C2)cc([N+](=O)[O-])c1O`, the AC50 under setting [1] is 11.2 µM [rising, partial curve].
Turning to `Cc1ccc2oc(-c3ccc(NC(=O)c4ccncc4)cc3O)nc2c1`, the AC50 under setting [1] is 0.562 µM [rising, full curve, poor fit].
On to `O=C(NCCCCc1ccccc1)c1ccccc1F`, for which, under setting [1], the half-maximal activity concentration (AC50) is 10 µM [falling, partial curve, poor fit].
`CC(C)NS(=O)(=O)c1ccc(OCC(=O)Nc2ccc3c(c2)OCO3)c(Cl)c1`: the AC50 under setting [1] was 0.082 µM [rising, full curve, poor fit].
As to `C/C(CC(=O)Nc1ccc(C)c(Cl)c1)=N\NC(=O)c1ccco1`, under setting [1], the AC50 is 11.2 µM [falling, partial curve, poor fit].
Still for that read-out and setting: then `CC(C)(C)c1cc(NC(=O)C2CCCO2)no1` (stereo unspecified), with 0.517 µM [rising, full curve, poor fit]; and `CS(=O)(=NS(=O)(=O)c1ccc(Cl)cc1)c1ccccc1` (stereo unspecified), with 15.8 µM [rising, partial curve, poor fit]; and `Cc1cnc(=O)[nH]c1SCC(=O)Nc1nccs1`, with 29.1 µM [falling, single point].
As to `COC(=O)Cc1cc(=O)n(-c2nc3ccccc3s2)[nH]1`, the half-maximal activity concentration (AC50) under setting [1] was 8.2 µM [falling, partial curve, poor fit].
Still for that read-out and setting: with `Cc1ccccc1NS(=O)(=O)c1cc(S(C)(=O)=O)ccc1Cl` the figure was 0.259 µM [rising, full curve, poor fit].
Regarding `CCOc1ccccc1NC(=S)Nc1ccc2cn[nH]c2c1`, under setting [1], the AC50 is 12.6 µM [falling, partial curve, poor fit].
Turning to `Cc1ccc(N2C(S)=C(C#N)C(=O)NC2c2ccco2)cc1` (stereo unspecified), under setting [1], the concentration at half-maximal activity (AC50) was 6.31 µM [rising, full curve, poor fit].
For the compound `CCn1cc(C2=NC(CC(C)C)CO2)c2ccccc21` (stereo unspecified), the concentration at half-maximal activity (AC50) under setting [1] is 0.708 µM [rising, full curve, poor fit].
`O=C(O)/C=C/C(=O)Nc1ccc(-c2ccccc2)cc1`: the AC50 under setting [1] is 25.1 µM [falling, single point] and 35.5 µM [falling, single point].
Consider `Cc1cc(C)n2[nH]c(=O)c(N=Nc3cccc(C(F)(F)F)c3)c2n1`, for which the AC50 under setting [1] is 6.51 µM [rising, single point].
Turning to `COc1cccc(NC2CC(=O)N(CCc3ccccc3)C2=O)c1` (stereo unspecified), under setting [1], the half-maximal activity concentration (AC50) is 4.47 µM [falling, partial curve, poor fit].
On the same count and under the same terms, then `Cc1ccc(NC(=O)c2ccccn2)c(Br)c1`, with 12.6 µM [rising, partial curve, poor fit].
Turning to `C/C(Cn1cnc([N+](=O)[O-])n1)=N\NC(=O)c1ccc(F)cc1`, under setting [1], the AC50 was 13 µM [falling, partial curve].
For the compound `CC(Sc1ccc(Cl)cc1)C(=O)Nc1ccccc1C(=O)N1CCOCC1` (stereo unspecified), under setting [1], the concentration at half-maximal activity (AC50) was 0.82 µM [falling, full curve, poor fit].
`O=c1cc(-c2ccco2)oc2ccc(Cl)cc12`: the AC50 under setting [1] was 1.03 µM [rising, full curve, poor fit].
In the case of `COc1cccc(-n2c(SCc3ccccn3)nc3c(c2=O)SCC3)c1`, the AC50 under setting [1] is 35.5 µM [rising, single point].
In the case of `Oc1ccccc1-c1cc(-c2ccccc2)no1`, the concentration at half-maximal activity (AC50) under setting [1] was 3.98 µM [falling, partial curve].
For `Brc1cc2c(cc1/C=N/Nc1nc(N3CCCCC3)nc(N3CCCCC3)n1)OCO2`, the AC50 under setting [1] was 10 µM [falling, partial curve].
Same read-out and setting: with `O=Nc1c(O)n(Cc2c(Cl)cccc2Cl)c2ccccc12` the figure was 2.59 µM [rising, full curve, poor fit]; with `CN(C)c1ccc(/C=C2\SC(N3CCCCC3)=NC2=O)cc1`, 0.1 µM [rising, full curve, poor fit].
With `CSc1ccccc1NC(=O)c1cccc(S(=O)(=O)N2CCN(C)CC2)c1`, the AC50 under setting [1] was 6.31 µM [rising, single point].
Take `O=C(O)CC/C(=N\NC(=O)c1ccccc1Br)c1ccccc1`: the AC50 under setting [1] is 11.6 µM [falling, partial curve].
For the compound `Nc1c(C(=O)c2ccc(Cl)cc2)sc2nc3c(cc12)CCC3`, the AC50 under setting [1] was 1.3 µM [falling, full curve].
For the compound `N#CC(C#N)=C1C(=O)N(CCN2CCOCC2)c2ccccc21`, under setting [1], the AC50 was 25.1 µM [falling, single point].
`COc1ccc(N2CC(C)Cn3c2nc2c3c(=O)n(Cc3ccccc3F)c(=O)n2C)c(OC)c1` (stereo unspecified): under setting [1], the half-maximal activity concentration (AC50) is 0.411 µM [falling, partial curve, poor fit].
In the case of `Cc1c(NC(=O)c2cccc(NC(=O)Cc3ccc(Cl)cc3)c2)c(=O)n(-c2ccccc2)n1C`, the AC50 reads like this: under setting [1], 14.6 µM [rising, single point]; under setting [2], 23.1 µM [falling, partial curve, poor fit].
For `COc1ccc(C(=O)Nc2cc([N+](=O)[O-])ccc2N2CCN(C)CC2)cc1`, the AC50 under setting [1] is 3.16 µM [rising, full curve, poor fit].
For `CC(=O)Nc1ccc(Oc2ccccc2)cc1`, under setting [1], the concentration at half-maximal activity (AC50) is 0.447 µM [rising, partial curve, poor fit].
`Cc1ccc(C(=O)N/N=C(/CC(=O)c2cccs2)C(F)(F)F)cc1`: the half-maximal activity concentration (AC50) under setting [1] is 32.6 µM [falling, single point].
Still for that read-out and setting: with `Cc1cccc(C(=O)NCC(=O)OCC(=O)N(C)CC(=O)Nc2ccccc2Cl)c1` the figure was 0.164 µM [rising, full curve, poor fit]; with `O=C(Nc1cccc2ccccc12)N1CCN(c2ncccn2)CC1`, 11.2 µM [falling, partial curve]; with `COC(=O)C1CCN(C(=O)COC(=O)/C=C/c2ccc(O)c(OC)c2)CC1`, 29.1 µM [falling, single point].
In the case of `CC/C(C)=N/N1C(=O)c2ccccc2NC1(C)CC` (stereo unspecified), the concentration at half-maximal activity (AC50) under setting [1] was 0.794 µM [falling, full curve].
The same measure, in the same setting: with `COc1ccc(Cl)cc1NC(=O)COC(=O)c1ccc(Br)o1` the figure was 13 µM [rising, partial curve, poor fit]; with `CCOC(OCC)c1cc2ccccc2cn1`, 1.84 µM [falling, partial curve, poor fit]; with `CCOC(=O)c1ccc(NC(=S)NCCc2ccccc2)cc1`, 0.282 µM [falling, full curve].
With `Cc1csc(NC(=O)CSc2nnc(Cc3cccn3C)n2CCc2ccccc2)n1`, the AC50 under setting [1] was 4.11 µM [falling, partial curve, poor fit].
For the compound `CC(=O)Nc1cccc(C(=O)OCC(=O)NC2CCCCCCC2)c1`, the half-maximal activity concentration (AC50) under setting [1] is 1.46 µM [rising, partial curve, poor fit].
In the case of `Cc1ccccc1OCC(=O)NNC(=O)c1ccoc1C`, the AC50 under setting [1] is 7.31 µM [rising, partial curve, poor fit].
The same measure, in the same setting: with `COc1ccc2[nH]c(C)c(CCNC(=S)Nc3cc(C)cc(C)c3)c2c1` the figure was 20.6 µM [rising, partial curve, poor fit]; with `CCCNC(=O)c1ccc(-c2nc3ccccc3s2)s1`, 0.092 µM [rising, partial curve, poor fit]; with `C=C(C)C(=O)Nc1cccc(C2=NOC3(C2)C[C@H](C(N)=O)N(C(=O)C(c2ccccc2)c2ccccc2)C3)c1` (stereo partly specified), 1.26 µM [rising, partial curve, poor fit].
For `COc1ccc(CCNC(=O)c2ccc3c(c2)N(Cc2ccccc2Cl)C(=O)c2ccccc2S3)cc1OC`, the AC50 under setting [1] was 14.1 µM [rising, single point].

In general, AC50 refers to the midpoint of the concentration-response curve, whichever way the signal moves.
